Measured values published in article PMC6471077.

By UniProt entry, the sequences of proteins in these tests, tags left out. Where a name states a change or a piece, a line headed by the entry shows the natural chain unless it says otherwise.
UniProt Q2QXL0: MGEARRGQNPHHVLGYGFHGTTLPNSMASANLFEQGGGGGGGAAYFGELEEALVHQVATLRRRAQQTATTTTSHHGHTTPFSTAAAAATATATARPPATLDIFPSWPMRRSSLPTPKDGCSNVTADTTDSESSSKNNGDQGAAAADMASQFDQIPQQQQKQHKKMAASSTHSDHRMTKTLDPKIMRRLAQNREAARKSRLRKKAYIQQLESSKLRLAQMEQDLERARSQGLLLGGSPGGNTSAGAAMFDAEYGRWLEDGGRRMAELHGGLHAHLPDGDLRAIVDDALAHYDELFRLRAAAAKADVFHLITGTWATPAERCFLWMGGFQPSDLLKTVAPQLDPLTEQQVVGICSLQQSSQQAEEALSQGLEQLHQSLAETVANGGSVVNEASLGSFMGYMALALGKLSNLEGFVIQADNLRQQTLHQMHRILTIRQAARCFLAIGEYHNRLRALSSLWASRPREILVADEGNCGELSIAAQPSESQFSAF

What was measured:
[1] = target: T1, GST-SAPK10 (rice (Oryza sativa L.)) (UniProt Q75H77); experiment: pull-down; GST fusion held on Glutathione High Capacity magnetic Agarose Beads; 500 ug of each recombinant protein in 600 uL buffer (50 mM Tris-HCl pH 7.5, 5% glycerol, 1 mM EDTA, 1 mM DTT, 1 mM PMSF, 0.01% Nonidet P-40, 150 mM KCl), 2 h at 4 C; western blot with anti-HIS and anti-GST; both …
T1 sequence: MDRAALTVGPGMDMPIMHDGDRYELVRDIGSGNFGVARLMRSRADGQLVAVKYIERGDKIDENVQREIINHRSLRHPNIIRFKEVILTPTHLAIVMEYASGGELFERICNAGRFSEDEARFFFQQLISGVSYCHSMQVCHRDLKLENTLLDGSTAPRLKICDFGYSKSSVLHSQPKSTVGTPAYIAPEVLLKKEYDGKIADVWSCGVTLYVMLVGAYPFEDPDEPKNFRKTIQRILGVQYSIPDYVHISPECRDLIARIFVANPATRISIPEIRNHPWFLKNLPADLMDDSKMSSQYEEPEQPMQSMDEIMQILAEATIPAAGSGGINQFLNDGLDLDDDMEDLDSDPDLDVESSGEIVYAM

[2] = target: T2, GST-SAPK9 (rice (Oryza sativa L.)) (UniProt Q75V57); experiment: as above
T2 sequence: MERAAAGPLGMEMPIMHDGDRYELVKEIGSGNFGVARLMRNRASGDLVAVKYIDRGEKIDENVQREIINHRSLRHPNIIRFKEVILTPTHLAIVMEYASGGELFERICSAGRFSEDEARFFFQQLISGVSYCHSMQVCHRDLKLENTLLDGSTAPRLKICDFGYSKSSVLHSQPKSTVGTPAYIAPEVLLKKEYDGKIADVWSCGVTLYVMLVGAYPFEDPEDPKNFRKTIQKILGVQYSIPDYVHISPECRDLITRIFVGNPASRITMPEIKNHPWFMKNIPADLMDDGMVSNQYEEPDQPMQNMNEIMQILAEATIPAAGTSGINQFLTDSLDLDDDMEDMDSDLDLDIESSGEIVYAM

[3] = target: bZIP35 (rice (Oryza sativa L.)); experiment: two-hybrid; bZIPs as baits in pDEST32, SAPKs as preys in pDEST22 (ProQuest system), co-transformed into yeast Y2HGold; growth on SD/-Trp-Leu-Ade-His with X-alpha-Gal; three repeats, positive only if positive in all three
[4] = target: bZIP83 (rice (Oryza sativa L.)) (UniProt Q2QXL0); experiment: as above
[5] = target: bZIP55 (rice (Oryza sativa L.)); experiment: as above
[6] = target: bZIP77 (rice (Oryza sativa L.)); experiment: as above

binding [3]: binds
binding [4]: binds
B2: SAPK8 (enzyme, UniProt Q7Y0B9 1-371)
chain: MAAAGAGAGAPDRAALTVGPGMDMPIMHDSDRYELVRDIGSGNFGVARLMRDRRTMELVAVKYIERGEKIDDNVQREIINHRSLKHPNIIRFKEVILTPTHLAIVMEYASGGELFERICKNVRFSEDEARYFFQQLISGVSYCHSMQVCHRDLKLENTLLDGSPAPRLKICDFGYSKSSVLHSQPKSTVGTPAYIAPEVLLKKEYDGKTADVWSCGVTLYVMVVGAYPFEDPEEPKNFRKTIQRILNVQYSIPENVDISPECRHLISRIFVGDPSLRITIPEIRSHGWFLKNLPADLMDDDSMSSQYEEPDQPMQTMDQIMQILTEATIPPACSRINHILTDGLDLDDDMDDLDSDSDIDVDSSGEIVYAM

binding [3]: binds
binding [5]: binds
binding [6]: binds
B3: SAPK10 (enzyme, UniProt Q75H77 1-362)
chain: T1 sequence

The next lines start with the molecule.

Molecule: HIS-bZIP77 (rice (Oryza sativa L.))
binding [1]: binds
binding [2]: binds

B1: SAPK7 (enzyme, UniProt Q7XQP4 1-359)
chain: MERYELLKDIGAGNFGVARLMRNKETKELVAMKYIPRGLKIDENVAREIINHRSLRHPNIIRFKEVVVTPTHLAIVMEYAAGGELFDRICNAGRFSEDEARYFFQQLICGVSYCHFMQICHRDLKLENTLLDGSPAPRLKICDFGYSKSSLLHSKPKSTVGTPAYIAPEVLSRREYDGKTADVWSCGVTLYVMLVGAYPFEDPDDPKNFRKTIGRIMSIQYKIPEYVHVSQDCRQLLSRIFVANPAKRITIREIRNHPWFLKNLPRELTEAAQAMYYKKDNSAPTYSVQSVEEIMKIVEEARTPPRSSTPVAGFGWQEEDEQEDNSKKPEEEQEEEEDAEDEYDKQVKQVHASGEFQLS
binding [3]: binds

No constants are given. Whether binding was seen depends on the method and setting. Binding can be weak; no strength is given. For some assays here: Tags and fused reporters may be left off the sequences shown. One block for each molecule: values may come before it.
